Measured data: PubChem BioAssay AID1508597 (Cure First, 2020)
Assay: 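Genes whose silencing sensitises or protects ovarian cancer cells against rucaparib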 (primary screen). Cells: human ovarian carcinoma lines grown from tumours: OCI-P5x (papillary serous) and OCI-C5x (clear cell). Reagent: siRNA pool against human genes, 1.25 pmol siRNA per well. Duration: 72 h or 96 h, depending on the cell culture. Conditions: rucaparib 20 µM (about IC30) or vehicle, present until read-out. Rucaparib or vehicle: Vehicle. Cell line: OCI-C5x (clear cell). Detection: 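Luminescent ATP-based viability assay read 72 or 96 h after transfection, depending on culture, given as normalised percent viability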. Scale: viability, normalised: higher = more viable cells remaining. Rule for the call: 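Active when normalised viability falls below 80 percent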. Calls: active = viability under 80%; inactive = viability 80% or more.
Shown is an unselected part of the about 2,100 reagents, in one setting of the screen. 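Calls flag viability under 80% in either arm, not effects specific to rucaparib; the reference for percent is not stated.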 Some reagents were tested in more than one well and are listed for each. Not stated in the record: the 100% reference.

| Target gene | PubChem SID | technical replicate | viability, normalised (%) | activity call |
| --- | --- | --- | --- | --- |
| LIG4 | SID405526955 | 1 | 42.3 | active |
| LIG4 | SID405526955 | 1 | 54.2 | active |
| LIG4 | SID405526955 | 2 | 46.8 | active |
| LIG4 | SID405526955 | 2 | 44.9 | active |
| LIG4 | SID405526955 | 3 | 59.1 | active |
| LIG4 | SID405526955 | 3 | 63.2 | active |
| RRM2 | SID405528260 | 1 | 34.7 | active |
| RRM2 | SID405528260 | 2 | 33.8 | active |
| RRM2 | SID405528260 | 3 | 28.6 | active |
| MTOR | SID405527501 | 1 | 59.7 | active |
| MTOR | SID405527501 | 2 | 48.8 | active |
| MTOR | SID405527501 | 3 | 48.8 | active |
| RYK | SID405528598 | 1 | 62.1 | active |
| RYK | SID405528598 | 2 | 56.6 | active |
| RYK | SID405528598 | 3 | 75.3 | active |
| TCF19 | SID405526537 | 1 | 39 | active |
| TCF19 | SID405526537 | 2 | 76.4 | active |
| TCF19 | SID405526537 | 3 | 63.5 | active |
| FANCF | SID405528281 | 1 | 38.5 | active |
| FANCF | SID405528281 | 2 | 43 | active |
| FANCF | SID405528281 | 3 | 36.4 | active |
| PI4K2A | SID405527854 | 1 | 63.2 | active |
| PI4K2A | SID405527854 | 2 | 51.5 | active |
| PI4K2A | SID405527854 | 3 | 49.9 | active |
| PXK | SID405527703 | 1 | 72.7 | active |
| PXK | SID405527703 | 2 | 48.3 | active |
| PXK | SID405527703 | 3 | 53 | active |
| SKP1 | SID405527544 | 1 | 58.1 | active |
| SKP1 | SID405527544 | 2 | 71.2 | active |
| SKP1 | SID405527544 | 3 | 64.6 | active |
| MAP2K3 | SID405526429 | 1 | 67.4 | active |
| MAP2K3 | SID405526429 | 1 | 76.5 | active |
| MAP2K3 | SID405526429 | 2 | 60.7 | active |
| MAP2K3 | SID405526429 | 2 | 73.1 | active |
| MAP2K3 | SID405526429 | 3 | 72 | active |
| MAP2K3 | SID405526429 | 3 | 38.8 | active |

Entries above whose gene name starts with M or m:
| Target gene | PubChem SID | technical replicate | viability, normalised (%) | activity call |
| --- | --- | --- | --- | --- |
| MTOR | SID405527501 | 1 | 59.7 | active |
| MTOR | SID405527501 | 2 | 48.8 | active |
| MTOR | SID405527501 | 3 | 48.8 | active |
| MAP2K3 | SID405526429 | 1 | 67.4 | active |
| MAP2K3 | SID405526429 | 1 | 76.5 | active |
| MAP2K3 | SID405526429 | 2 | 60.7 | active |
| MAP2K3 | SID405526429 | 2 | 73.1 | active |
| MAP2K3 | SID405526429 | 3 | 72 | active |
| MAP2K3 | SID405526429 | 3 | 38.8 | active |

The listing continues:
| Target gene | PubChem SID | technical replicate | viability, normalised (%) | activity call |
| --- | --- | --- | --- | --- |
| TGFB2 | SID405526557 | 1 | 68 | active |
| TGFB2 | SID405526557 | 1 | 56.5 | active |
| TGFB2 | SID405526557 | 2 | 45.6 | active |
| TGFB2 | SID405526557 | 2 | 50.4 | active |
| TGFB2 | SID405526557 | 3 | 72.7 | active |
| TGFB2 | SID405526557 | 3 | 32.6 | active |
| PHF3 | SID405527154 | 1 | 33.8 | active |
| PHF3 | SID405527154 | 2 | 37.4 | active |
| PHF3 | SID405527154 | 3 | 42.2 | active |
| PDE7B | SID405526701 | 1 | 53.9 | active |
| PDE7B | SID405526701 | 2 | 72.8 | active |
| PDE7B | SID405526701 | 3 | 44.6 | active |
| CBX6 | SID405528074 | 1 | 53.7 | active |
| CBX6 | SID405528074 | 2 | 41.7 | active |
| CBX6 | SID405528074 | 3 | 51.5 | active |
| PRDM14 | SID405527184 | 1 | 30.6 | active |
| PRDM14 | SID405527184 | 2 | 41.6 | active |
| PRDM14 | SID405527184 | 3 | 38.2 | active |
| PIK3C2A | SID405527475 | 1 | 74.4 | active |
| PIK3C2A | SID405527475 | 2 | 59.5 | active |
| PIK3C2A | SID405527475 | 3 | 68.3 | active |
